Source: patent publication US20160152686A1
These are yes or no findings as the source states them, for the method shown. Some entries that bind do so weakly or less than the wild type. Sequences can lack the tags named with a protein.

Protein sequences, listed by entry. Tags and fused reporters are not part of them. Residues count along the entry.
UniProt Q8NBP7, residues 31-692: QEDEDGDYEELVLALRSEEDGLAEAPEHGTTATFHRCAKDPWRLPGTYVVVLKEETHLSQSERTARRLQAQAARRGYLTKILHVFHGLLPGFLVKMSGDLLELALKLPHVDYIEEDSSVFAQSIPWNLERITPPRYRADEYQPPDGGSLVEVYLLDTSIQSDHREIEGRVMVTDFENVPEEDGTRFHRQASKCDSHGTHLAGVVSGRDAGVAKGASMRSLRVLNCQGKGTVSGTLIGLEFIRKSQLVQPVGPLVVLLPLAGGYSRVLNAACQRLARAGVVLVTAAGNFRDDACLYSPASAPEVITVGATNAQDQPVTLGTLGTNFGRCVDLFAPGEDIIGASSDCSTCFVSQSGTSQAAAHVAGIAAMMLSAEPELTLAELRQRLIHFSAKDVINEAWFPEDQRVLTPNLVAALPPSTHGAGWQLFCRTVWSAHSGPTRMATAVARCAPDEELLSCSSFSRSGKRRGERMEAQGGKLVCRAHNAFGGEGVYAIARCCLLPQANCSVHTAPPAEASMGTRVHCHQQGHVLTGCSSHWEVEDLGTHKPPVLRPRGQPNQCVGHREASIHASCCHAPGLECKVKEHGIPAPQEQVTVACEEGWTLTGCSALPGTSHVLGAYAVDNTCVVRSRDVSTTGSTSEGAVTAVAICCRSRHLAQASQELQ

Target: recombinant human PCSK9 expressed in baculovirus (human) (UniProt Q8NBP7)
Experiment: as shown in Example 2 (PCSK9:EGFA FRET assay)

B1: PCSK9 adnectin-ABD fusion protein (PCSK9 adnectin-(GS)3-ABD-His6) (designed binder)
chain: MGVSDVPRDLEVVAATPTSLLISWVPPSDDYGYYRITYGETGGNSPVQEFTVPIGKGTATISGLKPGVDYTITVYAVEFPWPHAGYYHRPISINYRTGSGSGSQHDEAVDANSLAEAKVLANRELDKYGVSDYYKNLINNAKTVEGVKALIDEILAALPHHHHHH
For B1, the binding was “binds”.
